# Literature values in US9707274B2, “Methods for preventing and treating post-traumatic stress disorder (PTSD)” (priority 2007, dated 2017).
# Some entries share one result that the patent states for a list of compounds.
# Tested on: α-adrenergic
# Settings: cited from earlier work
row,Compound,Duration of action [h]
1,"CNC[C@H](O)c1cccc(O)c1 [PHE, phenylephrine]",4 to 6
2,"c1ccc2c(c1)CCCC2C1=NCCN1 (centres unmarked) [THZ, tetrahydrozoline]",4 to 6
